Measured values as given in PubChem BioAssay AID2517 (National Center for Advancing Translational Sciences (NCATS), 2010).
Values joined by “and” are separate entries in the source; they are usually repeats but may differ in a detail not shown here. Equal entries are not always repeated. Among all 350,000 compounds or so, about 1,200 (0.34%) were called active. The shares of active, inactive and inconclusive entries below differ from those in the screen. Calls follow the shape of the dose curve; as a rule, active = well fitted inhibition curve with a large enough effect; inconclusive = small, poorly fitted or top-dose-only effect; inactive = no such curve, though single readings can be large or run the other way. Where the call is inconclusive, the potency comes from a doubtful curve fit.

Amino acid sequences for entries named in this document (tags omitted).
UniProt P27695, whole entry, looked up: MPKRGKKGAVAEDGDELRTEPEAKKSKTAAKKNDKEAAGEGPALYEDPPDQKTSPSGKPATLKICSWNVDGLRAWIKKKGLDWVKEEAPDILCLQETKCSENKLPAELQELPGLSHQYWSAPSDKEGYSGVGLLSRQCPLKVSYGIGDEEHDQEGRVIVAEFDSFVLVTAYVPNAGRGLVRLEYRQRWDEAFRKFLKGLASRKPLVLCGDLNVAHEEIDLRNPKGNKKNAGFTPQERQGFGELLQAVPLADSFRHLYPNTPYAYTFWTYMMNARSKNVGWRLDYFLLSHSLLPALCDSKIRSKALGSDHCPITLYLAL

molecular target: DNA repair nuclease/redox regulator APEX1 (Homo sapiens) (UniProt P27695); experiment: qHTS Assay for Inhibitors of the Human Apurinic/apyrimidinic Endonuclease 1 (APE1); settings: recombinant APE1, TAMRA/BHQ-2 abasic DNA cleavage fluorescence; activity change, negative = inhibition: at 65.8 µM (top of the series); also: nearly all actives have a fitted effect of over 55% in size;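 as to activity change, negative = inhibition: plate controls were vehicle for no effect and reference inhibitor for full effect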
How it was run: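 0.75 nM APE1 + cpd, 15 min RT; start w/ 50 nM TAMRA/BHQ-2 THF-abasic dsDNA; kinetic fluor 525/598 nm ×3 reads @60 s; Δ(read3−read1); normalized to DMSO and NSC13755 control wells.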
Potency is read from the fitted curve at half-maximal effect.

| Structure (SMILES) | Potency | activity change, negative = inhibition |
| --- | --- | --- |
| Nc1cnccc1C(=O)O | inconclusive: 12.6 µM [inhibitor, partial curve, poor fit] | – |
| CC(=Nc1ccccc1N)c1c(C)cc(=O)n(O)c1O | inconclusive: 5.62 µM [inhibitor, full curve, poor fit] | – |
| N#CCSc1nnc(SCC#N)s1 | inconclusive: 31.6 µM [inhibitor, single point] | – |
| O=C(NN=C1CCCC1)c1ccc(O)cc1O | – | inactive: 40.3% |
| CSCCC(NC(=O)c1ccc(Cl)cc1)C(=O)O (configuration not stated) | inconclusive: 39.8 µM [inhibitor, single point] | – |
| OC(CNC1CCCCC1)COCCOc1ccc(Br)cc1 (configuration not stated) | inconclusive: 0.0112 µM [inhibitor, full curve, poor fit] | – |
| COc1cc(C2C(C#N)=C(N)Oc3cc(C)oc(=O)c32)ccc1OC(=O)N1CCOCC1 (configuration not stated) | inconclusive: 44.7 µM [inhibitor, single point] | – |
| Cc1ccc(-c2cc(C(=O)Nc3ccccn3)c3ccccc3n2)o1 | inconclusive: 31.6 µM [inhibitor, single point] | – |
| O=C(N/N=C/c1cccnc1)c1ccccc1OCc1ccc(Cl)cc1 | – | inactive: -5.8% |
| COc1cccc2c1CCC1CC(=O)CC[C@@]21C (some centres not stated) | – | inactive: 1.22% |
| O=C(COc1ccc(Cl)cc1)NC1=NN(c2ccccc2)C(=O)C1 | – | inactive: -0.116% |
| CC(=O)NC(CC(=O)NC1CCCCC1)c1ccccc1 (configuration not stated) | inconclusive: 0.0035 µM [inhibitor, full curve, poor fit] | – |
| CC1=NN(c2ccccc2)C(=O)/C1=C\c1ccc(Oc2ccc([N+](=O)[O-])cc2[N+](=O)[O-])cc1 | – | inactive: -6.28% |
| O=C(NC1CCCC1)C(c1ccncc1)N(Cc1ccccc1)C(=O)Cc1cccs1 (configuration not stated) | inconclusive: 0.0028 µM [inhibitor, full curve, poor fit] | – |
| O=C1CSC(=S)N1N1C(=O)c2cccc([N+](=O)[O-])c2C1=O | inconclusive: 3.55 µM [inhibitor, full curve] | – |
| COCCNC(=O)C(c1ccc(C)o1)N(C(=O)c1snc(C(N)=O)c1N)c1cccc(C)c1 (configuration not stated) | inconclusive: 44.7 µM [inhibitor, single point] | – |
| O=C(CNc1cccc2ccccc12)N/N=C/c1ccccn1 | – | inactive: -2.71% |
| O=C(CCc1nc2sc3c(c2c(=O)[nH]1)CCCC3)NCCc1ccc(F)cc1 | – | inactive: 4.47% |
| CCOCCCNC(=O)c1ccc2c(c1)N(Cc1ccccc1)C(=O)CS2=O (configuration not stated) | inconclusive: 39.8 µM [inhibitor, single point] | – |
| O=C1C[C@@H](c2ccc(O)c(O)c2)Oc2c1ccc(O[C@@H]1O[C@H](CO)[C@@H](O)[C@H](O)[C@H]1O)c2O | inconclusive: 7.94 µM [inhibitor, full curve] | – |
| CC1(C)C(=O)Nc2ccccc2N1C(=O)COC(=O)Cc1ccccc1F | – | inactive: -7.43% |
| COC(=O)[C@@H]1C[C@@H](C(=O)O)[C@H](C)C1(C)C | – | inactive: 7.19% |
| O=C(c1ccc(S(=O)(=O)N2CCOCC2)cc1)N(c1cccc(Cl)c1)C1C=CS(=O)(=O)C1 (configuration not stated) | inconclusive: 8.91 µM [inhibitor, full curve, poor fit] | – |

Given bar-delimited: 17 of the compounds above
Structure (SMILES) | Potency | activity change, negative = inhibition
Nc1cnccc1C(=O)O | inconclusive: 12.6 µM [inhibitor, partial curve, poor fit] | –
CC(=Nc1ccccc1N)c1c(C)cc(=O)n(O)c1O | inconclusive: 5.62 µM [inhibitor, full curve, poor fit] | –
N#CCSc1nnc(SCC#N)s1 | inconclusive: 31.6 µM [inhibitor, single point] | –
OC(CNC1CCCCC1)COCCOc1ccc(Br)cc1 (configuration not stated) | inconclusive: 0.0112 µM [inhibitor, full curve, poor fit] | –
COc1cc(C2C(C#N)=C(N)Oc3cc(C)oc(=O)c32)ccc1OC(=O)N1CCOCC1 (configuration not stated) | inconclusive: 44.7 µM [inhibitor, single point] | –
Cc1ccc(-c2cc(C(=O)Nc3ccccn3)c3ccccc3n2)o1 | inconclusive: 31.6 µM [inhibitor, single point] | –
O=C(N/N=C/c1cccnc1)c1ccccc1OCc1ccc(Cl)cc1 | – | inactive: -5.8%
O=C(COc1ccc(Cl)cc1)NC1=NN(c2ccccc2)C(=O)C1 | – | inactive: -0.116%
CC(=O)NC(CC(=O)NC1CCCCC1)c1ccccc1 (configuration not stated) | inconclusive: 0.0035 µM [inhibitor, full curve, poor fit] | –
CC1=NN(c2ccccc2)C(=O)/C1=C\c1ccc(Oc2ccc([N+](=O)[O-])cc2[N+](=O)[O-])cc1 | – | inactive: -6.28%
O=C1CSC(=S)N1N1C(=O)c2cccc([N+](=O)[O-])c2C1=O | inconclusive: 3.55 µM [inhibitor, full curve] | –
COCCNC(=O)C(c1ccc(C)o1)N(C(=O)c1snc(C(N)=O)c1N)c1cccc(C)c1 (configuration not stated) | inconclusive: 44.7 µM [inhibitor, single point] | –
O=C(CNc1cccc2ccccc12)N/N=C/c1ccccn1 | – | inactive: -2.71%
CCOCCCNC(=O)c1ccc2c(c1)N(Cc1ccccc1)C(=O)CS2=O (configuration not stated) | inconclusive: 39.8 µM [inhibitor, single point] | –
O=C1C[C@@H](c2ccc(O)c(O)c2)Oc2c1ccc(O[C@@H]1O[C@H](CO)[C@@H](O)[C@H](O)[C@H]1O)c2O | inconclusive: 7.94 µM [inhibitor, full curve] | –
COC(=O)[C@@H]1C[C@@H](C(=O)O)[C@H](C)C1(C)C | – | inactive: 7.19%
O=C(c1ccc(S(=O)(=O)N2CCOCC2)cc1)N(c1cccc(Cl)c1)C1C=CS(=O)(=O)C1 (configuration not stated) | inconclusive: 8.91 µM [inhibitor, full curve, poor fit] | –

Carrying on:

| Structure (SMILES) | Potency | activity change, negative = inhibition |
| --- | --- | --- |
| Cn1c(Cn2nnc3ccccc32)nnc1SCC(=O)N1CCc2ccccc21 | inconclusive: 8.91 µM [inhibitor, single point] | – |
| COC(=O)C1=C2N(Cc3ccccc3)C(C)=C(C(=O)OC)C(c3ccccc3)N2C(=O)[C@](O)(C(=O)OC)C1 (some centres not stated) | – | inactive: 16.7% [at 12.4 µM] and inactive: 15.1% [at 12.4 µM] |
| NS(=O)(=O)c1ccc(Nc2nc(-c3ccc(O)cc3)cs2)cc1 | inconclusive: 44.7 µM [inhibitor, single point] | – |
| Oc1ccc(C2C(c3ccccc3)=NN=C(c3ccccc3F)N2O)c(O)c1 (configuration not stated) | inconclusive: 1.78 µM [inhibitor, full curve] | – |
| O=C(N/N=C/c1c[nH]c2ccccc12)c1ccccc1Cl | – | inactive: 34.6% |
| COC(=O)c1ccc(/C=N/NC(=O)c2ccc3nc[nH]c3c2)cc1 | – | inactive: -19.4% |
| COC(=O)NC(c1ccc(F)cc1)C(C(C)=O)C(=O)OC (configuration not stated) | inconclusive: 3.55 µM [inhibitor, single point] | – |
| O=C(O)COc1ccc(/C=C2\SC(=Nc3ccccc3)N(c3ccccc3)C2=O)cc1 | inconclusive: 44.7 µM [inhibitor, single point] | – |
| CCOc1cccc(/C=N/NC(=O)c2cc(-c3cccn3C)n[nH]2)c1O | – | inactive: -5.21% |
| Cc1ccc(S(=O)(=O)N(CC(=O)NCc2cccnc2)C2CCCCC2)cc1 | – | inactive: 2.65% |
| C/C=C/C=C/[C@H]1Cc2cc(O)cc(O)c2O1 | inconclusive: 25.1 µM [inhibitor, single point] | – |
| Cc1cccc(NC(=O)N(C)Cc2cccs2)c1 | – | inactive: -1.06% |
| O=C(O)C1CN(CCCP(=O)(O)O)CCN1 (configuration not stated) | inconclusive: 44.7 µM [inhibitor, single point] | – |
| Cc1ccc(C(=O)NCCc2nnc3ccc(SCC(=O)Nc4ccccc4C)nn23)cc1 | inconclusive: 6.31 µM [inhibitor, single point] | – |
| C[C@@H]1C[C@](C)(C(=O)c2ccco2)C=C1c1ccco1 | inconclusive: 25.1 µM [inhibitor, single point] | – |
| O=C(CCCC[C@@H]1SC[C@H]2NC(=O)N[C@H]12)Nc1ccc(C(=O)O)cc1 | – | inactive: -0.192% |
| CN1CCN(C2=Cc3ccccc3Sc3cc(F)c(F)cc32)CC1 | inconclusive: 0.631 µM [inhibitor, full curve, poor fit] | – |
| Cc1scc(C(=O)NCc2ccco2)c1-c1ccccc1 | inconclusive: 31.6 µM [inhibitor, single point] | – |
| CC(=O)[C@H]1[C@@H]2C(=O)N(c3cccc(Cl)c3)C(=O)[C@@H]2[C@H]2c3ccccc3C=CN21 | inconclusive: 39.8 µM [inhibitor, single point] | – |
| O=C1CCCC=C1[C@@H](O)C1CCCCC1 | – | inactive: 0.32% [at 12.4 µM] |
| O=C(O)c1cccc(Cl)n1 | inconclusive: 20 µM [inhibitor, single point] | – |
| O=C(O)CSc1c2c(nc3cc(C(=O)NCCN4CCOCC4)ccc13)CCC2 | inconclusive: 31.6 µM [inhibitor, single point] | – |
| CCCCCCN(C(=O)CCCCCN1C(=O)NC(c2ccc(-c3ccccc3)cc2)C(C(=O)OCc2ccccc2)=C1C)C(C(=O)NCCCC)c1cccc(C(=O)OC)c1 (configuration not stated) | inconclusive: 28.2 µM [inhibitor, partial curve] | – |

| Structure (SMILES) | Potency | activity change, negative = inhibition |
| --- | --- | --- |
| O=C(OCC#CCSc1nc2ccccc2s1)c1ccco1 | inconclusive: 17.8 µM [inhibitor, single point] | – |
| COc1cccc(CSc2ccc(S(=O)(=O)N3CCOCC3)cc2C(=O)NCC2CCCO2)c1OC (configuration not stated) | inconclusive: 22.4 µM [inhibitor, single point] | – |
| N[C@H](C(=O)O)c1ccc(C(=O)O)c(O)c1 | inconclusive: 17.8 µM [inhibitor, full curve, poor fit] and inconclusive: 39.8 µM [inhibitor, single point] | – |
| CC(=O)Oc1cc2c3c(c1)/C(=C1/SC(=S)NC1=O)C(=O)N3C(C)(C)C=C2C | inconclusive: 28.2 µM [inhibitor, single point] | – |
| O=C(Nc1ccc(N2CCCC2)c(Cl)c1)c1cccs1 | inconclusive: 3.16 µM [inhibitor, partial curve] | – |
| COc1ccccc1NC(=O)Nc1ccc(C(N)=O)cc1 | inconclusive: 44.7 µM [inhibitor, single point] | – |
| CNCC(=O)N1CCN(c2ncc(C(F)(F)F)cc2Cl)CC1 | inconclusive: 44.7 µM [inhibitor, single point] | – |
| Cc1ccccc1-c1ccc2ncnc(N3CCNCC3)c2c1 | inconclusive: 25.1 µM [inhibitor, partial curve] | – |
| O=C(O)c1cc(=O)c2ccccc2[nH]1 | inactive | – |
| O=C(NCCNC[C@@H](O)COc1ccc(O)cc1)N1CCOCC1 | inconclusive: 14.1 µM [inhibitor, single point] | – |
| O=c1cc(-c2ccc(O)c(O)c2)oc2cccc(O)c12 | inconclusive: 20 µM [inhibitor, partial curve, poor fit] | – |
| Cc1ccc(C2CCN(C(=S)NC3CCCCC3)C2)cc1 (configuration not stated) | inconclusive: 31.6 µM [inhibitor, single point] | – |
| CC(=O)Nc1cccc(C(=O)/C=C/c2ccco2)c1 | inconclusive: 44.7 µM [inhibitor, single point] | – |
| CC(O)[C@H]1CNC(=O)C(=O)N1CCc1cccc(F)c1 (some centres not stated) | inconclusive: 15.8 µM [inhibitor, partial curve] | – |
| O=C(Nc1ccc2c3c(cccc13)CC2)c1ccco1 | inconclusive: 5.01 µM [inhibitor, single point] | – |
| Nc1cc(=O)[nH]c(SCC(=O)NNC(=O)Cc2ccccc2)n1 | inconclusive: 39.8 µM [inhibitor, single point] | – |
| O=C(O)c1cccc(NC(=S)N/N=C/c2ccccc2OCc2cccc(Br)c2)c1 | inconclusive: 35.5 µM [inhibitor, single point] | – |
| O=C(O)CCn1c(C(=O)O)cc2sccc21 | inconclusive: 31.6 µM [inhibitor, single point] | – |
| Cc1c(Cl)cccc1NC(=O)[C@@H](NC(=O)c1ccccc1Cl)C(C)C | inconclusive: 31.6 µM [inhibitor, partial curve, poor fit] | – |
| CCOc1cc(CNCc2ccncc2)cc(Br)c1OCc1ccc(F)cc1 | inconclusive: 39.8 µM [inhibitor, single point] | – |
| COCCn1c(N)c(C(=O)NCC2CCCO2)c2nc3ccccc3nc21 (configuration not stated) | inconclusive: 39.8 µM [inhibitor, single point] | – |
